Patent US20220288057A1, “CONJOINT THERAPY FOR TREATING SEIZURE DISORDERS” (XENON PHARMACEUTICALS INC., priority 2021, published 2022)

Test system: 6 Hz psychomotor seizures in CF-1 mice
Test: Mouse 6 Hz psychomotor seizure assay (34 milliampere, 3 s)
Assay type: in vivo
Details: Compound A PO 1 h, Study 3A
Experimental: It was evaluated whether the combination of both compounds is favorable or unfavorable for efficacy by dosing Compound A and Levetiracetam alone and in combination, each at a dose that produces sub-maximal efficacy on its own. […] Plasma and brain samples were analyzed to gain an understanding of how the combination of Compound A and Levetiracetam may affect pharmacokinetics and pharmacodynamics. […] 6 Hz Psychomotor Seizure Assay: […] The animal was then securely restrained and a pair of electrodes was applied to the eyes (Electro Convulsive Therapy Unit 57800, Ugo Basile). […] Data Processing and Analysis: Statistical data analysis was performed using GraphPad Prism (version 8.2.1). Dose-response data was analyzed using a Kruskal-Wallis test, followed by Dunn's multiple comparisons. […] Dose- and concentration-response curves were generated using the Hill Langmuir equation: […]

## Cc1cc(N2CCc3cc(F)ccc3C2)cc(C)c1NC(=O)CC(C)(C)C [Compound A, N-[4-(6-fluoro-3,4-dihydro-1H-isoquinolin-2-yl)-2,6-dimethylphenyl]-3,3-dimethylbutanamide]
  Hill coefficient n of brain concentration response curve: −2.17
  Hill coefficient n of dose response curve: −3.09
  Hill coefficient n of plasma concentration response curve: −1.95
